Laboratory results taken from the supplement of paper PMC10849652.
This is one part of the list.

By UniProt entry, the sequences of proteins in these tests, tags left out. Where a name states a change or a piece, a line headed by the entry shows the natural chain unless it says otherwise.
UniProt Q13136: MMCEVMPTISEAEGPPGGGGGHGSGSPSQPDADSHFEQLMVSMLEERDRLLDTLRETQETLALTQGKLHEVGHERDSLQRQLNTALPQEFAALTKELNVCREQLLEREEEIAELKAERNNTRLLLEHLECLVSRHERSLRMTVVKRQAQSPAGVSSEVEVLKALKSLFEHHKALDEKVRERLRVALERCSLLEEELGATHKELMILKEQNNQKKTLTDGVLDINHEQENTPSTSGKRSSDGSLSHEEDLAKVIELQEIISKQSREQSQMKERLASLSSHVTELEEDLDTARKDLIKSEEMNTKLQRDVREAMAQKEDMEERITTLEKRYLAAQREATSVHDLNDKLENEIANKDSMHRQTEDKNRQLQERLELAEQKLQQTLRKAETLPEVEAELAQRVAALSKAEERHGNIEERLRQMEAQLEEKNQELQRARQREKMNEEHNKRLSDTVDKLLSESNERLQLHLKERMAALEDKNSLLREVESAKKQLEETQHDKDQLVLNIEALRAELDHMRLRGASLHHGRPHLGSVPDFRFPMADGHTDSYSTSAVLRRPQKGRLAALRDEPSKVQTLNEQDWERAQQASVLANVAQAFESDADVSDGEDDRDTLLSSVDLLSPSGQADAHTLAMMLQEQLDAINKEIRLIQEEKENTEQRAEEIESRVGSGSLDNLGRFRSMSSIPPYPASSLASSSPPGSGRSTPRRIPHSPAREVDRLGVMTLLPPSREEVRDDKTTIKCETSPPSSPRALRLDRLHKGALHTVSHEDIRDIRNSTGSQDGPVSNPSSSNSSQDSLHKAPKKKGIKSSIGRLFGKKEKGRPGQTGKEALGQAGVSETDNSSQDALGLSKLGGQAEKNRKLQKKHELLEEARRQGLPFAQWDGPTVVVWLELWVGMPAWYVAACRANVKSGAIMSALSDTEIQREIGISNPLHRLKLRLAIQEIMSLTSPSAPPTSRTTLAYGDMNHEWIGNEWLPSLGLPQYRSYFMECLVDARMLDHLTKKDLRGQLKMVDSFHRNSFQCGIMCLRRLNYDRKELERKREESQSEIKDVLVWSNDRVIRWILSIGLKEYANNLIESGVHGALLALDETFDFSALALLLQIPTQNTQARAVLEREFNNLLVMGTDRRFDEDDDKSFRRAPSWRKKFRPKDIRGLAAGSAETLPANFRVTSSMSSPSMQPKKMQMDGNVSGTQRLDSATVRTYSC
UniProt Q9NW08: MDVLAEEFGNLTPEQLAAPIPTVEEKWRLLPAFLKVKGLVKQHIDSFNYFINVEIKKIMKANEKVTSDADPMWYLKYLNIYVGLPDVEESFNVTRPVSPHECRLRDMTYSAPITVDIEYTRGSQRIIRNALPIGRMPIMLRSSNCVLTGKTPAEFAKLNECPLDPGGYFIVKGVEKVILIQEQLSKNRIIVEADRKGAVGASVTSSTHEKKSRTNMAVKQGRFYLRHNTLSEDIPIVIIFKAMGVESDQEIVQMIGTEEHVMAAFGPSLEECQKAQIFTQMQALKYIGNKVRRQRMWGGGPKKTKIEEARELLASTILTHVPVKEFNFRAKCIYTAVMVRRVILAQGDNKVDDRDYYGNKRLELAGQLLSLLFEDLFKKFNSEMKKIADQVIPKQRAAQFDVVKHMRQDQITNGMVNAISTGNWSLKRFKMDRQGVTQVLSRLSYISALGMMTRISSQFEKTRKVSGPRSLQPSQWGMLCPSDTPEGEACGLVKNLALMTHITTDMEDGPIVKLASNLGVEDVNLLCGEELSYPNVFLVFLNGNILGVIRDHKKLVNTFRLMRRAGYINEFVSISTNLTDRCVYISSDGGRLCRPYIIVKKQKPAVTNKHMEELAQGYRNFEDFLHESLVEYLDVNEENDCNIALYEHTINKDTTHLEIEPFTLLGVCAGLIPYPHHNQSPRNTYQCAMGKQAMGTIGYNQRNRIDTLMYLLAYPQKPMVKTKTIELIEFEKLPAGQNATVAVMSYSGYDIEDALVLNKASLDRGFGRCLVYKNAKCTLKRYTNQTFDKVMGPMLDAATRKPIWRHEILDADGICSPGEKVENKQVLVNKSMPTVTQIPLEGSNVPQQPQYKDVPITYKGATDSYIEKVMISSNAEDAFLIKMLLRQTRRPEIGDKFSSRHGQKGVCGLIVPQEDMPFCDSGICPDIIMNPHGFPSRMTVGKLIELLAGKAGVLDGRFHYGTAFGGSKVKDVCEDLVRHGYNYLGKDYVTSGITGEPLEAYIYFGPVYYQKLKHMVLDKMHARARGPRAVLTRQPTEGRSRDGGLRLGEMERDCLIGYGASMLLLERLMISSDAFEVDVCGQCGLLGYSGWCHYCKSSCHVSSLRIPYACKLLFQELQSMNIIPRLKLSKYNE
UniProt Q8TD55: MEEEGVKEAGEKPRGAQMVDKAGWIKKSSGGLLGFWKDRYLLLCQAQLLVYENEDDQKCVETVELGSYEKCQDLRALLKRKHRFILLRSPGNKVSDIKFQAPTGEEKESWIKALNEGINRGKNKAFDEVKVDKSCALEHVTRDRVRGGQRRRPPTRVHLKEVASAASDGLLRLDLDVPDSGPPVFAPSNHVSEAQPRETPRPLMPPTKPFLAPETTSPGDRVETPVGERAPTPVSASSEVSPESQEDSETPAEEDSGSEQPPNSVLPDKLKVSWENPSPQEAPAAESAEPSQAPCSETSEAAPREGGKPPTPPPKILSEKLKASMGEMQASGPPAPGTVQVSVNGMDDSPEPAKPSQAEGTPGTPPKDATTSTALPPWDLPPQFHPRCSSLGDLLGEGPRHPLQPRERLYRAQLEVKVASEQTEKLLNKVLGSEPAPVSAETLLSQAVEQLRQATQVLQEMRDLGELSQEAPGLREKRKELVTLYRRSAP
UniProt P54278: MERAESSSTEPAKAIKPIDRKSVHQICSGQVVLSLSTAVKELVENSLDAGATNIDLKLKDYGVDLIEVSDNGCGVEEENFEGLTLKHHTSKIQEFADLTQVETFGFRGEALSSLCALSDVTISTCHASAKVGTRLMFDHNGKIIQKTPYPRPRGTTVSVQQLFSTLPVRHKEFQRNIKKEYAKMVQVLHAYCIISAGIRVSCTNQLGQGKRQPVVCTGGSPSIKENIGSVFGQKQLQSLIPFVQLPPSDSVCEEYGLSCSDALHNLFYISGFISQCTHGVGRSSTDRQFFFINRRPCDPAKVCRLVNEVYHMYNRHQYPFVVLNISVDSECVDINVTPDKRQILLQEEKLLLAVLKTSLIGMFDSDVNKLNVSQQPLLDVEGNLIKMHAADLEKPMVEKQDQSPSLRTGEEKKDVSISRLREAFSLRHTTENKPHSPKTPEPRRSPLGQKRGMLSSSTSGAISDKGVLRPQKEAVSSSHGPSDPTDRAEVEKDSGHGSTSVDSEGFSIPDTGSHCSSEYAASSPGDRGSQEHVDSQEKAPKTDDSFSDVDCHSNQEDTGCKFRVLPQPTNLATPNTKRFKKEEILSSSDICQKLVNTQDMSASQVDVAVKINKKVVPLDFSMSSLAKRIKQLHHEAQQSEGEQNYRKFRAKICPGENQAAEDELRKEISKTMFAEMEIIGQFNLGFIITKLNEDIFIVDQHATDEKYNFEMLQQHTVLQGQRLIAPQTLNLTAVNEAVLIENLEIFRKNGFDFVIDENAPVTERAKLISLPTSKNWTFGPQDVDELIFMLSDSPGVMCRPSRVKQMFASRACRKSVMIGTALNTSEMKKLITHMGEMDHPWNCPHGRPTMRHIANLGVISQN
UniProt P00491: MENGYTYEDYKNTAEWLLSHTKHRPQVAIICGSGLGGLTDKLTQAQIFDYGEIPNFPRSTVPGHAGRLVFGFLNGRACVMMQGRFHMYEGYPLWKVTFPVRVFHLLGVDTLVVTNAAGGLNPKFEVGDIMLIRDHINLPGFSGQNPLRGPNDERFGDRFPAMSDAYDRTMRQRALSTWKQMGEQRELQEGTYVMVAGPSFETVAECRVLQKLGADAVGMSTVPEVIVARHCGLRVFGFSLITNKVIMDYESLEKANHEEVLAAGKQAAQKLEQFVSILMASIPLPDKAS
UniProt Q9NRF9: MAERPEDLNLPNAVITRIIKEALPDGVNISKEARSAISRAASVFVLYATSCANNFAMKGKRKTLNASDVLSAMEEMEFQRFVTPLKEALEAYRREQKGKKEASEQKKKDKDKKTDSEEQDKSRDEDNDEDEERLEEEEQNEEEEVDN
UniProt O43660: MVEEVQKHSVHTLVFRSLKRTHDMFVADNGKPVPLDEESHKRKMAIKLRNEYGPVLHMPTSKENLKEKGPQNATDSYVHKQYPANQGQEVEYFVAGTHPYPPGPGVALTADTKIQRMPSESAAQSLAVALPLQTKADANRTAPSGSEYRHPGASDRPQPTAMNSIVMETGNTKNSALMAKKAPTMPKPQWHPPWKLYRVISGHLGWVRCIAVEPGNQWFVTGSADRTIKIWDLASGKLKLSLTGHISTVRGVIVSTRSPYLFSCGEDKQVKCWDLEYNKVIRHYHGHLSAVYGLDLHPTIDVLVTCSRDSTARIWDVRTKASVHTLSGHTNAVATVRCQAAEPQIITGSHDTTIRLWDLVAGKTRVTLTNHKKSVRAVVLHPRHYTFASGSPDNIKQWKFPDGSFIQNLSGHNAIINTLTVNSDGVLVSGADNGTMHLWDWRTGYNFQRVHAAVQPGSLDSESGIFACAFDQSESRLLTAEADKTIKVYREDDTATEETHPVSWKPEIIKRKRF
UniProt Q9H9Y6, whole entry, looked up: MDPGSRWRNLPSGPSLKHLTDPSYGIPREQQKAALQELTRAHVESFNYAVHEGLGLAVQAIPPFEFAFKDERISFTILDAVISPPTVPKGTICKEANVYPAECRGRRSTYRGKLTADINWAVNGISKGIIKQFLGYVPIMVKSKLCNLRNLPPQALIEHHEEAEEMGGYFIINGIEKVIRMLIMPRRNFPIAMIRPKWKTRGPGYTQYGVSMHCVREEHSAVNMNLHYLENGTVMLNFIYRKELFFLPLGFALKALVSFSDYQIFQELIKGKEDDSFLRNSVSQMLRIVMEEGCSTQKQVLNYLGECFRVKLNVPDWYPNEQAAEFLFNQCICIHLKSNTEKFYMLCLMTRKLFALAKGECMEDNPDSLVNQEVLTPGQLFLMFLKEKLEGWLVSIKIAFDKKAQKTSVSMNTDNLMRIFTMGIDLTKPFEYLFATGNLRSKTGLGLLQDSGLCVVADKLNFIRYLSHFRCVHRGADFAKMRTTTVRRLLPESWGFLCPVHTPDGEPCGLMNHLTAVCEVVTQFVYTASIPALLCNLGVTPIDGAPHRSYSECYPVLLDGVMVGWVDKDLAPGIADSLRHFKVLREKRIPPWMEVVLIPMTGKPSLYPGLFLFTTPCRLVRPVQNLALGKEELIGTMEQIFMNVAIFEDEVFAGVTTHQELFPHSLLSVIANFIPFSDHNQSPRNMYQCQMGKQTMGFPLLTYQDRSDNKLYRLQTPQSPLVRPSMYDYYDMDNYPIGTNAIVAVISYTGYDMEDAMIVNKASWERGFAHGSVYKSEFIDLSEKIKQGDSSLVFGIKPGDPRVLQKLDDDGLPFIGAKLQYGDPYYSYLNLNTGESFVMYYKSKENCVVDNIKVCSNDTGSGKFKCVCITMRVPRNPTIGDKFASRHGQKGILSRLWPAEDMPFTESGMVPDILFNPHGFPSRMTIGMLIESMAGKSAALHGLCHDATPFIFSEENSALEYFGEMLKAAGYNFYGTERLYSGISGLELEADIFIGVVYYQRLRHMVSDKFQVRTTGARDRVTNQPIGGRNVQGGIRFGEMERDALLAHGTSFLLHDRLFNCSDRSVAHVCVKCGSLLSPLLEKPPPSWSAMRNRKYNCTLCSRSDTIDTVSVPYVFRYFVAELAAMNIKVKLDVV
UniProt Q9HAB8: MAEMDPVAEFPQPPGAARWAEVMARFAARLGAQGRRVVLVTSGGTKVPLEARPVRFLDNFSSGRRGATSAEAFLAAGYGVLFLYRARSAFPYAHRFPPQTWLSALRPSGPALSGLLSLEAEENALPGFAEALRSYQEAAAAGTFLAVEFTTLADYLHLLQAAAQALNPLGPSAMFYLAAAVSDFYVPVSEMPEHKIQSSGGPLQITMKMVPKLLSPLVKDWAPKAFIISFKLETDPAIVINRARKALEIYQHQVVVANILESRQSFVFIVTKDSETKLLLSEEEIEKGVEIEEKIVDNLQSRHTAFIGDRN
UniProt O75439: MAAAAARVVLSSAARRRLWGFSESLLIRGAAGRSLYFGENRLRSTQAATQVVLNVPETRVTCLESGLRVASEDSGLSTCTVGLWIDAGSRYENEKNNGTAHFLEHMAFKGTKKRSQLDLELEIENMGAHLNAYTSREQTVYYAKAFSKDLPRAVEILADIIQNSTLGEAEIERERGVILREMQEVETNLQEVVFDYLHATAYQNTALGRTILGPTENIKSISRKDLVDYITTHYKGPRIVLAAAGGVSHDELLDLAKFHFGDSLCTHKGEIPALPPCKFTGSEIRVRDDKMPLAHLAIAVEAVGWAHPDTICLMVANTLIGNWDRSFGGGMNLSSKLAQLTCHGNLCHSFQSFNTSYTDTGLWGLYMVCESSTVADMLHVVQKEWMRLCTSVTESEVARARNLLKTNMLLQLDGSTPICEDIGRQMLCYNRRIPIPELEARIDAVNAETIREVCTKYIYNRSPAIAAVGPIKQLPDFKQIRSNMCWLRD

Assays:
Experiment in all cases: log2 fold change, soluble protein after heating vs DMSO (PISA); higher = thermal stabilisation; K562 lysate, 10 uM; active = over 0.2 and 3.5 SD of the protein, either way, in both replicates (recomputed)
vemurafenib = compound: CCCS(=O)(=O)Nc1ccc(F)c(C(=O)c2c[nH]c3ncc(-c4ccc(Cl)cc4)cc23)c1F [vemurafenib]
Method in brief: (§1)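 To prepare the extract, K562 pellets were dounce-homogenised in PBS pH 7.4 with 1 mM MgCl2, giving crude material at 1 mg/mL protein. This was treated with 10 μM compound for 30 min, then heated in aliquots for 3 min over 48°C-58°C before pooling and addition of NP-40 to 0.5% at 4°C. Centrifugation at 21,000xg for 90 min left soluble protein in the supernatant, which TMTpro 16plex LC-MS/MS quantified with equalised channel sums. Results are log-two fold changes in thermal stability compared with solvent controls, from duplicates.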

[1] = compound: CCCS(=O)(=O)Nc1ccc(F)c(C(=O)c2c[nH]c3ncc(Cl)cc23)c1F
Method in brief: as §1

barasertib = compound: CCN(CCCOc1ccc2c(Nc3cc(CC(=O)Nc4cccc(F)c4)[nH]n3)ncnc2c1)CCOP(=O)(O)O [barasertib]
Method in brief: as §1

[2] = compound: CC[C@@H]1C(=O)N(C)c2cnc(Nc3ccc(C(=O)NC4CCN(C)CC4)cc3OC)nc2N1C1CCCC1
Method in brief: as §1

volasertib = compound: CC[C@@H]1C(=O)N(C)c2cnc(Nc3ccc(C(=O)N[C@H]4CC[C@H](N5CCN(CC6CC6)CC5)CC4)cc3OC)nc2N1C(C)C [volasertib]
Method in brief: as §1

[3] = compound: CCn1c(C(=O)N(C2CC2)C2CC2)cc2c3c(ncn3C)c(Nc3cc(C)n(C)n3)nc21
Method in brief: as §1

[4] = compound: CCn1cc(-c2ccnc3[nH]c(-c4cccc(CN(C)C)c4)cc23)c(-c2ccc(NC(=O)N(C)C)cc2)n1
Method in brief: as §1

[5] = compound: CN1CCC(CNc2ccc3ncc(-c4cccc(OC(F)(F)F)c4)n3n2)CC1
Method in brief: as §1

saracatinib = compound: CN1CCN(CCOc2cc(OC3CCOCC3)c3c(Nc4c(Cl)ccc5c4OCO5)ncnc3c2)CC1 [saracatinib]
Method in brief: as §1

sotrastaurin = compound: CN1CCN(c2nc(C3=C(c4c[nH]c5ccccc45)C(=O)NC3=O)c3ccccc3n2)CC1 [sotrastaurin]
Method in brief: as §1

alvocidib = compound: CN1CC[C@H](c2c(O)cc(O)c3c(=O)cc(-c4ccccc4Cl)oc23)[C@H](O)C1 [alvocidib]
Method in brief: as §1

Tubastatin A = compound: CN1CCc2c(c3ccccc3n2Cc2ccc(C(=O)NO)cc2)C1 [Tubastatin A]
Method in brief: as §1

[6] = compound: CNC(=O)C1=CC=CC=C1NC2=NC(=NC=C2Cl)NC3=C(C=C(C=C3)N4CCOCC4)OC
Method in brief: as §1

defactinib = compound: CNC(=O)c1ccc(Nc2ncc(C(F)(F)F)c(NCc3nccnc3N(C)S(C)(=O)=O)n2)cc1 [defactinib]
Method in brief: as §1

[7] = compound: CNc1nc(-c2ccc3c(N)n[nH]c3c2)cc(N2C[C@@H](C(=O)NC3CCCCC3)CC[C@H]2C)n1
Method in brief: as §1

encorafenib = compound: COC(=O)N[C@@H](C)CNc1nccc(-c2cn(C(C)C)nc2-c2cc(Cl)cc(NS(C)(=O)=O)c2F)n1 [encorafenib]
Method in brief: as §1

[8] = compound: COC(=O)[C@H](CCSC)NC(=O)C1=C(C=C(C=C1)NC[C@H](CS)N)C2=CC=CC=C2
Method in brief: as §1

alisertib = compound: COc1cc(Nc2ncc3c(n2)-c2ccc(Cl)cc2C(c2c(F)cccc2OC)=NC3)ccc1C(=O)O [alisertib]
Method in brief: as §1

[9] = compound: COc1cc2nc(-c3cc(F)ccc3O)nc(N[C@@H]3CNC[C@H]3C(C)(C)O)c2cc1OC
Method in brief: as §1

gefitinib = compound: COc1cc2ncnc(Nc3ccc(F)c(Cl)c3)c2cc1OCCCN1CCOCC1 [gefitinib]
Method in brief: as §1

Measured: log2 fold change

PPFIA1 (UniProt Q13136)
inactive: vemurafenib 0.007 | [1] 0.002 | barasertib -0.007 | [2] 0.021 | volasertib -0.024 | [3] 0.005 | [4] -0.028 | [5] 0.004 | saracatinib 0.016 | sotrastaurin 0.014 | alvocidib -0.002 | Tubastatin A -0.024 | [6] -0.016 | defactinib 0.003 | [7] -0.005 | encorafenib 0.024 | [8] -0.006 | alisertib -0.003 | [9] -0.03 | gefitinib -0.013

POLR3B (UniProt Q9NW08)
inactive: vemurafenib -0.006 | [1] 0.002 | barasertib 0.02 | [2] 0 | volasertib -0.01 | [3] 0.02 | [4] 0.022 | [5] -0.02 | saracatinib 0.021 | sotrastaurin 0.032 | alvocidib 0.019 | Tubastatin A -0.047 | [6] 0.017 | defactinib -0.006 | [7] 0.038 | encorafenib 0.025 | [8] 0.016 | alisertib -0.015 | [9] 0 | gefitinib -0.004

PLEKHO2 (UniProt Q8TD55)
inactive: vemurafenib 0.034 | [1] 0.247 | barasertib 0.161 | [2] 0.068 | volasertib 0.151 | [3] 0.126 | [4] 0.136 | [5] 0.016 | saracatinib 0.278 | sotrastaurin -0.054 | alvocidib -0.067 | Tubastatin A -0.228 | [6] 0.281 | defactinib -0.001 | [7] -0.106 | encorafenib 0.007 | [8] 0.054 | alisertib -0.004 | [9] 0 | gefitinib 0.043

POFUT2 (UniProt Q9Y2G5)
inactive: vemurafenib 0.048 | [1] 0.042 | barasertib 0.028 | [2] -0.044 | volasertib -0.002 | [3] 0.075 | [4] -0.006 | [5] 0.027 | saracatinib 0.017 | sotrastaurin 0.062 | alvocidib -0.006 | Tubastatin A -0.121 | [6] 0.069 | defactinib 0.025 | [7] 0.033 | encorafenib -0.02 | [8] 0.043 | alisertib -0.001 | [9] 0.021 | gefitinib 0.003

PMS2 (UniProt P54278)
inactive: vemurafenib -0.015 | [1] -0.028 | barasertib 0.033 | [2] -0.072 | volasertib -0.147 | [3] 0.101 | [4] -0.02 | [5] 0.012 | saracatinib -0.004 | sotrastaurin 0.001 | alvocidib -0.001 | Tubastatin A -0.129 | [6] 0.03 | defactinib 0.021 | [7] 0.103 | encorafenib 0.038 | [8] 0.089 | alisertib 0.009 | [9] 0.02 | gefitinib 0.024

PLOD3 (UniProt O60568)
inactive: vemurafenib -0.02 | [1] -0.018 | barasertib -0.004 | [2] -0.048 | volasertib -0.005 | [3] 0.026 | [4] 0.01 | [5] 0.022 | saracatinib -0.015 | sotrastaurin 0.005 | alvocidib -0.011 | Tubastatin A 0.001 | [6] 0.005 | defactinib 0.006 | [7] -0.132 | encorafenib 0.062 | [8] -0.009 | alisertib 0.01 | [9] 0.008 | gefitinib -0.004

PPIE (UniProt Q9UNP9)
inactive: vemurafenib 0.026 | [1] -0.043 | barasertib -0.042 | [2] 0.044 | volasertib 0.018 | [3] -0.003 | [5] 0.143 | saracatinib -0.01 | sotrastaurin 0.067 | alvocidib -0.131 | Tubastatin A 0.025 | [6] -0.047 | defactinib -0.018 | [7] 0.023 | encorafenib -0.025 | [8] -0.041 | alisertib -0.036 | [9] 0.005 | gefitinib 0.034
active: [4] -0.25

PNP (UniProt P00491)
inactive: vemurafenib -0.029 | [1] -0.012 | barasertib -0.035 | [2] 0.007 | volasertib 0.014 | [3] 0.013 | [4] -0.001 | [5] 0.049 | saracatinib -0.01 | sotrastaurin 0.022 | alvocidib -0.005 | Tubastatin A 0.012 | [6] -0.016 | defactinib 0.002 | [7] -0.024 | encorafenib -0.018 | [8] -0.056 | alisertib -0.015 | [9] -0.012 | gefitinib 0.019

POLR2D (UniProt O15514)
inactive: vemurafenib 0.04 | [1] 0.001 | barasertib 0.258 | [2] 0.087 | volasertib -0.008 | [3] 0.011 | [4] 0.061 | [5] 0.041 | saracatinib 0.057 | sotrastaurin 0.014 | alvocidib -0.009 | Tubastatin A 0.05 | [6] 0.01 | defactinib -0.048 | [7] 0.026 | encorafenib -0.041 | [8] -0.184 | alisertib 0.065 | [9] 0.046 | gefitinib -0.009

POFUT1 (UniProt Q9H488)
inactive: vemurafenib -0.037 | [1] 0 | barasertib -0.063 | [2] 0.008 | volasertib -0.012 | [3] -0.024 | [4] -0.013 | [5] 0.022 | saracatinib -0.025 | sotrastaurin 0.024 | alvocidib 0.003 | Tubastatin A 0.039 | [6] -0.006 | defactinib -0.01 | [7] -0.022 | encorafenib -0.004 | [8] -0.025 | alisertib 0.023 | [9] -0.009 | gefitinib -0.002

POLE3 (UniProt Q9NRF9)
inactive: vemurafenib 0.008 | [1] -0.021 | barasertib 0.01 | [2] 0.05 | volasertib 0.014 | [3] -0.012 | [4] -0.011 | [5] 0.034 | saracatinib 0.017 | sotrastaurin 0.003 | alvocidib -0.051 | Tubastatin A 0.047 | [6] -0.002 | defactinib 0.025 | [7] 0.044 | encorafenib -0.018 | [8] -0.071 | alisertib 0.02 | [9] 0.02 | gefitinib 0.001

PLRG1 (UniProt O43660)
inactive: vemurafenib 0.01 | [1] -0.003 | barasertib 0.018 | [2] -0.011 | volasertib -0.032 | [3] -0.016 | [4] -0.052 | [5] 0.024 | saracatinib 0.009 | sotrastaurin 0.024 | alvocidib -0.06 | Tubastatin A 0.055 | [6] 0.011 | defactinib 0.012 | [7] -0.021 | encorafenib 0.067 | [8] -0.003 | alisertib -0.012 | [9] -0.014 | gefitinib -0.012

Reprinted at random: 2 records from the list.
PNP (UniProt P00491)
inactive: vemurafenib -0.029 | [1] -0.012 | barasertib -0.035 | [2] 0.007 | volasertib 0.014 | [3] 0.013 | [4] -0.001 | [5] 0.049 | saracatinib -0.01 | sotrastaurin 0.022 | alvocidib -0.005 | Tubastatin A 0.012 | [6] -0.016 | defactinib 0.002 | [7] -0.024 | encorafenib -0.018 | [8] -0.056 | alisertib -0.015 | [9] -0.012 | gefitinib 0.019

POFUT1 (UniProt Q9H488)
inactive: vemurafenib -0.037 | [1] 0 | barasertib -0.063 | [2] 0.008 | volasertib -0.012 | [3] -0.024 | [4] -0.013 | [5] 0.022 | saracatinib -0.025 | sotrastaurin 0.024 | alvocidib 0.003 | Tubastatin A 0.039 | [6] -0.006 | defactinib -0.01 | [7] -0.022 | encorafenib -0.004 | [8] -0.025 | alisertib 0.023 | [9] -0.009 | gefitinib -0.002

(cont.)

POLR1B isoform 3 (UniProt Q9H9Y6)
inactive: vemurafenib -0.01 | [1] 0.011 | barasertib 0.043 | [2] 0.005 | volasertib -0.03 | [3] 0.039 | [4] -0.078 | [5] -0.016 | saracatinib 0.01 | sotrastaurin -0.025 | alvocidib -0.035 | Tubastatin A -0.076 | [6] -0.025 | defactinib 0.02 | [7] -0.011 | encorafenib -0.008 | [8] 0.185 | alisertib -0.038 | [9] 0.005 | gefitinib 0.018

PPCS (UniProt Q9HAB8)
inactive: vemurafenib 0.084 | [1] 0 | barasertib -0.001 | [2] -0.001 | volasertib -0.014 | [3] -0.017 | [4] -0.009 | [5] 0.005 | saracatinib -0.038 | sotrastaurin -0.028 | alvocidib 0.018 | Tubastatin A 0.038 | [6] 0.016 | defactinib -0.075 | [7] -0.056 | encorafenib -0.041 | [8] 0.008 | alisertib -0.02 | [9] -0.029 | gefitinib 0.025

PON2 (UniProt Q15165)
inactive: vemurafenib 0.066 | [1] 0.035 | barasertib 0.097 | [2] 0.018 | volasertib -0.027 | [3] -0.013 | [4] 0.045 | [5] 0 | saracatinib 0.162 | sotrastaurin 0.038 | alvocidib 0.082 | Tubastatin A -0.004 | [6] -0.023 | defactinib 0.021 | [7] -0.008 | encorafenib 0.063 | [8] -0.027 | alisertib -0.052 | [9] 0.06 | gefitinib 0.146

PMPCB (UniProt O75439)
inactive: vemurafenib -0.026 | [1] -0.038 | barasertib 0.012 | [2] -0.034 | volasertib 0.005 | [3] 0.016 | [4] -0.001 | [5] 0.07 | saracatinib -0.021 | sotrastaurin -0.008 | alvocidib -0.008 | Tubastatin A 0.055 | [6] -0.034 | defactinib 0.02 | [7] -0.013 | encorafenib -0.011 | [8] 0.027 | alisertib -0.042 | [9] 0.003 | gefitinib -0.074
